This series is described as follows: Encapsulation efficiencies, Example 8 (method not given). It is filed as physicochemical. Conditions: organosilica particles.
Molecule `CC1=C(/C=C/C(C)=C/C=C/C(C)=C/CO)C(C)(C)CCC1` [retinol] returned an Encapsulation efficiency of 44%.
In turn, `C=C(C)[C@H]1CC=C(C)CC1` [limonene] registered an Encapsulation efficiency of 23%.
To Sudan red belongs 52%.
The result for `CCCCNc1ccc(NCCCC)c2c1C(=O)c1ccccc1C2=O` [Solvent blue 35] reads 85%.

(Values after patent US9017643B2, “Particles comprising a releasable dopant therein” (Australian Nuclear Science and Technology Organisation, priority 2005, dated 2015).)
